Data reported in publication doi:10.1101/2025.10.27.684930.
Results are given in words; binding and its absence hold for the method and conditions named. Binding seen in cells or lysates may run through a third protein. Some results given as binding are weak or reduced against the parent protein; the word gives no strength. For some assays here: Tags and fused reporters may be left off the sequences shown. Values belong to the binder of their own block, whether it stands above or below them.

Experiments:
[1] = target: SBP-EGFP-tagged δ-opioid receptor (DOR) of DOR-RUSH HeLa cells (human) (UniProt P41143); test: co-IP
[2] = target: His-tagged mu-opioid receptor (MOR) co-expressed in Sf9 cells (UniProt P35372); test: pull-down + SEC

binding [1]: binds
B1: cornichon homolog 1 (CNIH1), endogenous in HeLa cells (protein, UniProt O95406 1-144)
chain: MAFTFAAFCYMLALLLTAALIFFAIWHIIAFDELKTDYKNPIDQCNTLNPLVLPEYLIHAFFCVMFLCAAEWLTLGLNMPLLAYHIWRYMSRPVMSGPGLYDPTTIMNADILAYCQKEGWCKLAFYLLAFFYYLYGMIYVLVSS

binding [2]: binds
B2: Strep-tagged CNIH1 co-expressed in Sf9 cells (protein, UniProt O95406 1-144)
chain: B1 chain
